Laboratory results: the supplement of paper PMC11438910
Residue numbers refer to the chain shown, from its start. Some of the results follow. Only a few entries rise above the background.

Tests used:
Assay in all cases: fluorescence intensity of antibody binding to polysaccharide-coupled beads; higher = stronger binding
[1] = molecular target: pneumococcal polysaccharide Pn9N
[2] = molecular target: pneumococcal polysaccharide Pn9V
[3] = molecular target: pneumococcal polysaccharide C-Poly-1
[4] = molecular target: pneumococcal polysaccharide C-Poly-2
[5] = molecular target: pneumococcal polysaccharide Pn1
[6] = molecular target: pneumococcal polysaccharide Pn10A
[7] = molecular target: pneumococcal polysaccharide Pn10B
[8] = molecular target: pneumococcal polysaccharide Pn10C
[9] = molecular target: pneumococcal polysaccharide Pn10F
[10] = molecular target: pneumococcal polysaccharide Pn11A
[11] = molecular target: pneumococcal polysaccharide Pn11B
[12] = molecular target: pneumococcal polysaccharide Pn11C
[13] = molecular target: pneumococcal polysaccharide Pn11D
[14] = molecular target: pneumococcal polysaccharide Pn11F
[15] = molecular target: pneumococcal polysaccharide Pn12A
[16] = molecular target: pneumococcal polysaccharide Pn12B
[17] = molecular target: pneumococcal polysaccharide Pn12F
[18] = molecular target: pneumococcal polysaccharide Pn13
[19] = molecular target: pneumococcal polysaccharide Pn14
[20] = molecular target: pneumococcal polysaccharide Pn15A
[21] = molecular target: pneumococcal polysaccharide Pn15B
[22] = antibody concentration 2337.65 ng/mL
[23] = antibody concentration 12500 ng/mL
[24] = antibody concentration 0.1 ng/mL
[25] = antibody concentration 0.534724 ng/mL
[26] = antibody concentration 2.8593 ng/mL
[27] = antibody concentration 15.2894 ng/mL
[28] = antibody concentration 81.7561 ng/mL
[29] = antibody concentration 437.17 ng/mL

B1: 4-99.1 (protein)
chain 1: QVQLQESGPGLVKPSETLSLTCAVSGDSISSGYFWGWIRQPPGKGLEYIGYISGESGNTYDNPSLKSRVTISKDTSKNQFSLNLRSVTAADTAVYYCARRTVYIGFDYWGQGVLVTVSS
chain 2: QAAPTQPPSVSGSPGQSVTISCTGTSSDIGYYNAVSWYQQHPGKAPKLMIYEVSKRPSGVSDRFSGSKSGTTASLTISGLQAEDEADYYCSSYAGTNTYIFGAGTRLTVL
- fluorescence intensity [1, 22]: 22.8 MFI
- fluorescence intensity [1, 23]: 57.8 MFI
- fluorescence intensity [2, 24]: 14.5 MFI
- fluorescence intensity [2, 25]: 16 MFI
- fluorescence intensity [2, 26]: 15 MFI
- fluorescence intensity [2, 27]: 16.2 MFI
- fluorescence intensity [2, 28]: 14.2 MFI
- fluorescence intensity [2, 29]: 15.5 MFI
- fluorescence intensity [2, 22]: 19.5 MFI
- fluorescence intensity [2, 23]: 23.8 MFI

B2: 4-99.2 (protein)
chain 1: QVQLQESGPGLVKPSETLSLTCAVSGYSIRSAYEWGWIRQPPGKGLEYIGYISGESGNTYYSPSLKSRVTISRDTSKNQFSLRLSSVTAADSAVYYCARRGQLIGFDFWGQGVLVTVSS
chain 2: B1 chain 2 with Q40H, H41L, T71N, T96S
- fluorescence intensity [3, 24]: 25.5 MFI
- fluorescence intensity [3, 25]: 23.8 MFI
- fluorescence intensity [3, 26]: 24.2 MFI
- fluorescence intensity [3, 27]: 25.2 MFI
- fluorescence intensity [3, 28]: 23.8 MFI
- fluorescence intensity [3, 29]: 26.8 MFI
- fluorescence intensity [3, 22]: 30 MFI
- fluorescence intensity [3, 23]: 73 MFI
- fluorescence intensity [4, 24]: 21 MFI
- fluorescence intensity [4, 25]: 20.5 MFI
- fluorescence intensity [4, 26]: 20 MFI
- fluorescence intensity [4, 27]: 21 MFI
- fluorescence intensity [4, 28]: 21.5 MFI
- fluorescence intensity [4, 29]: 22.5 MFI
- fluorescence intensity [4, 22]: 26 MFI
- fluorescence intensity [4, 23]: 62.5 MFI
- fluorescence intensity [5, 24]: 12.8 MFI
- fluorescence intensity [5, 25]: 13 MFI
- fluorescence intensity [5, 26]: 12.5 MFI
- fluorescence intensity [5, 27]: 13.5 MFI
- fluorescence intensity [5, 28]: 14.5 MFI
- fluorescence intensity [5, 29]: 13 MFI
- fluorescence intensity [5, 22]: 17.5 MFI
- fluorescence intensity [5, 23]: 29 MFI
- fluorescence intensity [6, 24]: 25 MFI
- fluorescence intensity [6, 25]: 26 MFI
- fluorescence intensity [6, 26]: 26.8 MFI
- fluorescence intensity [6, 27]: 25 MFI
- fluorescence intensity [6, 28]: 25 MFI
- fluorescence intensity [6, 29]: 26.5 MFI
- fluorescence intensity [6, 22]: 26 MFI
- fluorescence intensity [6, 23]: 31.8 MFI
- fluorescence intensity [7, 24]: 21 MFI
- fluorescence intensity [7, 25]: 26.5 MFI
- fluorescence intensity [7, 26]: 24 MFI
- fluorescence intensity [7, 27]: 21 MFI
- fluorescence intensity [7, 28]: 25 MFI
- fluorescence intensity [7, 29]: 23.2 MFI
- fluorescence intensity [7, 22]: 22.5 MFI
- fluorescence intensity [7, 23]: 29.5 MFI
- fluorescence intensity [8, 24]: 15 MFI
- fluorescence intensity [8, 25]: 16.5 MFI
- fluorescence intensity [8, 26]: 17 MFI
- fluorescence intensity [8, 27]: 16 MFI
- fluorescence intensity [8, 28]: 15.5 MFI
- fluorescence intensity [8, 29]: 15.5 MFI
- fluorescence intensity [8, 22]: 16.5 MFI
- fluorescence intensity [8, 23]: 21 MFI
- fluorescence intensity [9, 24]: 18.5 MFI
- fluorescence intensity [9, 25]: 19.5 MFI
- fluorescence intensity [9, 26]: 18.5 MFI
- fluorescence intensity [9, 27]: 21.5 MFI
- fluorescence intensity [9, 28]: 20.5 MFI
- fluorescence intensity [9, 29]: 21.2 MFI
- fluorescence intensity [9, 22]: 19.5 MFI
- fluorescence intensity [9, 23]: 22.2 MFI
- fluorescence intensity [10, 24]: 28 MFI
- fluorescence intensity [10, 25]: 26.5 MFI
- fluorescence intensity [10, 26]: 27 MFI
- fluorescence intensity [10, 27]: 26 MFI
- fluorescence intensity [10, 28]: 27.5 MFI
- fluorescence intensity [10, 29]: 29.5 MFI
- fluorescence intensity [10, 22]: 33 MFI
- fluorescence intensity [10, 23]: 43 MFI
- fluorescence intensity [11, 24]: 24.5 MFI
- fluorescence intensity [11, 25]: 25 MFI
- fluorescence intensity [11, 26]: 25.5 MFI
- fluorescence intensity [11, 27]: 22 MFI
- fluorescence intensity [11, 28]: 22.5 MFI
- fluorescence intensity [11, 29]: 24.8 MFI
- fluorescence intensity [11, 22]: 28 MFI
- fluorescence intensity [11, 23]: 33.5 MFI
- fluorescence intensity [12, 24]: 21.5 MFI
- fluorescence intensity [12, 25]: 22 MFI
- fluorescence intensity [12, 26]: 20.5 MFI
- fluorescence intensity [12, 27]: 23 MFI
- fluorescence intensity [12, 28]: 24 MFI
- fluorescence intensity [12, 29]: 23.5 MFI
- fluorescence intensity [12, 22]: 28 MFI
- fluorescence intensity [12, 23]: 73 MFI
- fluorescence intensity [13, 24]: 22 MFI
- fluorescence intensity [13, 25]: 22.5 MFI
- fluorescence intensity [13, 26]: 22 MFI
- fluorescence intensity [13, 27]: 24 MFI
- fluorescence intensity [13, 28]: 20.2 MFI
- fluorescence intensity [13, 29]: 23.2 MFI
- fluorescence intensity [13, 22]: 25.8 MFI
- fluorescence intensity [13, 23]: 43.5 MFI
- fluorescence intensity [14, 24]: 13 MFI
- fluorescence intensity [14, 25]: 15 MFI
- fluorescence intensity [14, 26]: 13.2 MFI
- fluorescence intensity [14, 27]: 14.2 MFI
- fluorescence intensity [14, 28]: 10.5 MFI
- fluorescence intensity [14, 29]: 14.5 MFI
- fluorescence intensity [14, 22]: 15.2 MFI
- fluorescence intensity [14, 23]: 20 MFI
- fluorescence intensity [15, 24]: 15 MFI
- fluorescence intensity [15, 25]: 14.8 MFI
- fluorescence intensity [15, 26]: 15 MFI
- fluorescence intensity [15, 27]: 15.5 MFI
- fluorescence intensity [15, 28]: 15 MFI
- fluorescence intensity [15, 29]: 15.5 MFI
- fluorescence intensity [15, 22]: 16.8 MFI
- fluorescence intensity [15, 23]: 27.5 MFI
- fluorescence intensity [16, 24]: 14.5 MFI
- fluorescence intensity [16, 25]: 14.5 MFI
- fluorescence intensity [16, 26]: 16.5 MFI
- fluorescence intensity [16, 27]: 13.5 MFI
- fluorescence intensity [16, 28]: 13.8 MFI
- fluorescence intensity [16, 29]: 16.2 MFI
- fluorescence intensity [16, 22]: 17.2 MFI
- fluorescence intensity [16, 23]: 26.8 MFI
- fluorescence intensity [17, 24]: 17.5 MFI
- fluorescence intensity [17, 25]: 16.5 MFI
- fluorescence intensity [17, 26]: 19.5 MFI
- fluorescence intensity [17, 27]: 18 MFI
- fluorescence intensity [17, 28]: 18 MFI
- fluorescence intensity [17, 29]: 20.5 MFI
- fluorescence intensity [17, 22]: 21.5 MFI
- fluorescence intensity [17, 23]: 29.5 MFI
- fluorescence intensity [18, 24]: 18.2 MFI
- fluorescence intensity [18, 25]: 17.5 MFI
- fluorescence intensity [18, 26]: 19.2 MFI
- fluorescence intensity [18, 27]: 18 MFI
- fluorescence intensity [18, 28]: 18.5 MFI
- fluorescence intensity [18, 29]: 19 MFI
- fluorescence intensity [18, 22]: 19.5 MFI
- fluorescence intensity [18, 23]: 26.5 MFI
- fluorescence intensity [19, 24]: 14.5 MFI
- fluorescence intensity [19, 25]: 14.5 MFI
- fluorescence intensity [19, 26]: 13.8 MFI
- fluorescence intensity [19, 27]: 13.5 MFI
- fluorescence intensity [19, 28]: 14 MFI
- fluorescence intensity [19, 29]: 16 MFI
- fluorescence intensity [19, 22]: 20 MFI
- fluorescence intensity [19, 23]: 51.2 MFI
- fluorescence intensity [20, 24]: 12 MFI
- fluorescence intensity [20, 25]: 11.8 MFI
- fluorescence intensity [20, 26]: 12.2 MFI
- fluorescence intensity [20, 27]: 12.5 MFI
- fluorescence intensity [20, 28]: 12 MFI
- fluorescence intensity [20, 29]: 12.5 MFI
- fluorescence intensity [20, 22]: 12.5 MFI
- fluorescence intensity [20, 23]: 16.5 MFI
- fluorescence intensity [21, 24]: 18.5 MFI
- fluorescence intensity [21, 25]: 18.5 MFI
- fluorescence intensity [21, 26]: 16.2 MFI
- fluorescence intensity [21, 27]: 18 MFI
- fluorescence intensity [21, 28]: 18.5 MFI
- fluorescence intensity [21, 29]: 18.5 MFI
